# Reference: PubChem BioAssay AID1487 (National Center for Advancing Translational Sciences (NCATS), 2009)
# Some of the results follow. These are further read-outs of the screen, such as a control signal, another cell line or another target. No call is given for them. Most of these compounds were active or inconclusive in the main read-out, so they are no random draw. The note in brackets gives the kind of curve behind each potency; many fits are weak.
# Assay: qHTS Assay for Modulators of Lamin A Splicing
# Conditions: HeLa LMNA splicing GFP/RFP minigene ratio, 48 h
# In short: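 S3 HeLa stable clones carrying a lamin A-EGFP splicing minigene plus DsRed2 were seeded at 600 cells/well in Opti-MEM with 2% FBS, pin-dosed and incubated 48 h at 37°C. Acumen cytometry (488 nm) gave the GFP/RFP total-intensity ratio.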
# [1] = measured here: GFP splicing reporter channel
# [2] = measured here: RFP viability control channel
compound,measurement,setting,value
O=C1C(=O)N2C(=C1C(=O)N1CCCCCC1)c1ccccc1CC21CCCC1,AC50,[1],"22.4 µM [falling, single point]"
same,AC50,[2],"35.5 µM [falling, partial curve, poor fit]"
CC1(c2ccc3noc(-c4ccc(Cl)cc4)c3c2)OCCO1,AC50,[1],"14.1 µM [rising, single point]"
same,AC50,[2],"14.1 µM [rising, single point]"
COc1ccc(NC(=O)CSc2nc3c([nH]c4ccccc43)c(=O)n2-c2ccccc2)c(OC)c1,AC50,[1],"14.1 µM [falling, single point]"
same,AC50,[2],"31.6 µM [falling, single point]"
CC1CCN(S(=O)(=O)c2cccc(C(=O)Nc3ccccn3)c2)CC1,AC50,[1],"14.1 µM [rising, single point]"
same,AC50,[2],"22.4 µM [rising, single point]"
COc1ccc(/C=N/NC(=O)c2cc(Br)ccc2O)cc1Cn1cc(Cl)cn1,AC50,[2],"35.5 µM [rising, partial curve]"
COc1ccc(N2CCN(C3CC(=O)N(Cc4ccccc4)C3=O)CC2)cc1 (stereo unspecified),AC50,[1],"12.6 µM [falling, partial curve, poor fit]"
same,AC50,[2],"0.158 µM [falling, full curve, poor fit]"
O=C1[C@@H]2[C@@H]3C[C@@H]([C@H]4ON=C(c5ccc(Cl)cc5)[C@@H]34)[C@@H]2C(=O)N1C1CCCCC1,AC50,[1],"17.8 µM [rising, single point]"
same,AC50,[2],"28.2 µM [rising, partial curve]"
NC(=O)c1c(NC(=S)Nc2ccccc2)sc2c1CCCC2,AC50,[2],"0.00316 µM [falling, full curve]"
Cc1cc(S(=O)(=O)C(CNC(=O)c2ccc(OC(C)C)cc2)c2cccs2)ccc1F (stereo unspecified),AC50,[1],"17.8 µM [falling, partial curve, poor fit]"
COc1cccc2c1ncc1c(-c3ccc(C)cc3)nn(-c3cccc([N+](=O)[O-])c3)c12,AC50,[2],"1 µM [falling, full curve, poor fit]"
O=C(Nc1ccc2c(c1)OCO2)c1ccc(N2CCCC2)c([N+](=O)[O-])c1,AC50,[1],"31.6 µM [rising, single point]"
same,AC50,[2],"35.5 µM [rising, single point]"
COC(=O)c1c(NC(=O)COc2ncnc3ccccc23)sc(C)c1C,AC50,[2],"35.5 µM [rising, single point]"
Cc1ccccc1Cn1ccc(NC(=O)c2nn(C)cc2[N+](=O)[O-])n1,AC50,[1],"15.8 µM [falling, single point]"
COc1cc2c(cc1NC(=O)c1ccc3c(c1)OCO3)oc1ccccc12,AC50,[1],"12.6 µM [rising, single point]"
same,AC50,[2],"11.2 µM [rising, single point]"
Cc1ccc(C(=O)NC(=S)NCC2CCCO2)cc1Br (stereo unspecified),AC50,[2],"10 µM [rising, partial curve]"
Cc1cccc(C)c1NC(=O)Cn1c(=O)n(CCCC(=O)NCc2ccco2)c(=O)c2sccc21,AC50,[1],"0.0224 µM [rising, full curve, poor fit]"
same,AC50,[2],"7.94 µM [rising, partial curve, poor fit]"
Cc1cc(C)cc(NC(=O)C(=O)NCC(c2ccc3c(c2)OCO3)N2CCN(C)CC2)c1 (stereo unspecified),AC50,[2],"6.31 µM [rising, single point]"
O=C1CSC(c2ccc([N+](=O)[O-])cc2)N1CCN1CCCCC1 (stereo unspecified),AC50,[1],"0.891 µM [falling, partial curve]"
same,AC50,[2],"0.251 µM [falling, full curve, poor fit]"
O=C(COc1ccccc1)NCc1ccc2c(c1)CCN2C(=O)c1ccc(Cl)cc1,AC50,[1],"7.94 µM [rising, partial curve, poor fit]"
CC(C)Cn1c(=O)n(C)c(=O)c2[nH]cnc21,AC50,[1],"5.62 µM [falling, partial curve, poor fit]"
Cn1cccc1Cc1nnc(SCC(N)=O)n1CCc1ccccc1,AC50,[2],"11.2 µM [rising, partial curve, poor fit]"
O=C(N/N=C/c1cn(-c2ccccc2)nc1-c1ccc(F)cc1)c1ccc(Br)o1,AC50,[1],"4.47 µM [rising, partial curve, poor fit]"
same,AC50,[2],"22.4 µM [rising, single point]"
O=c1[nH]cnc2c1ncn2[C@@H]1O[C@H](CO)[C@@H](O)[C@H]1O,AC50,[1],"0.0178 µM [falling, full curve, poor fit]"
O=C(NCc1ccco1)c1ccc(Cn2c(SCc3ccc(F)cc3)nc3cccnc32)cc1,AC50,[1],"31.6 µM [falling, single point]"
COc1cccc(/C=C/c2nc3c(cnn3-c3ccccc3)c(=O)[nH]2)c1,AC50,[1],"0.0282 µM [rising, full curve, poor fit]"
COc1ccc(N2C(=O)[C@@H]3[C@H](C2=O)[C@H](C(=O)c2ccc(OC(C)=O)cc2)N2N=CC=C[C@@H]32)cc1,AC50,[2],"0.447 µM [rising, full curve, poor fit]"
O=c1cc(-c2ccccc2)n2c(SCc3ccc(Cl)cc3)nnc2[nH]1,AC50,[1],"15.8 µM [rising, partial curve, poor fit]"
same,AC50,[2],"11.2 µM [rising, partial curve, poor fit]"
CC(=O)c1cn(CC(=O)Nc2ccc(C)cc2)c2ccccc12,AC50,[2],"2.82 µM [rising, full curve]"
CC1CCN(S(=O)(=O)c2ccc3c(c2)oc(=O)n3CC(=O)NCc2ccc3c(c2)OCO3)CC1,AC50,[2],"3.16 µM [rising, full curve]"
CCOc1ccc(CN(C)CC(=O)NCc2ccccc2Cl)cc1,AC50,[2],"25.1 µM [rising, partial curve]"
CCc1ccc(-c2nc(CN3CCC(C(=O)NCCc4ccc(OC)c(OC)c4)CC3)c(C)o2)cc1,AC50,[1],"6.31 µM [rising, full curve, poor fit]"
same,AC50,[2],"12.6 µM [rising, partial curve]"
CC(C)N(C(=O)c1ccc2nc(-c3ccccc3)c(-c3ccccc3)nc2c1)C(C)C,AC50,[2],"35.5 µM [rising, single point]"
Cc1ccc(C=Nc2ccccc2C(N)=O)s1,AC50,[2],"3.55 µM [rising, full curve]"

# Pulled one by one from the entries so far, three records:
compound,measurement,setting,value
O=C(NCc1ccco1)c1ccc(Cn2c(SCc3ccc(F)cc3)nc3cccnc32)cc1,AC50,[1],"31.6 µM [falling, single point]"
O=c1[nH]cnc2c1ncn2[C@@H]1O[C@H](CO)[C@@H](O)[C@H]1O,AC50,[1],"0.0178 µM [falling, full curve, poor fit]"
CC(C)Cn1c(=O)n(C)c(=O)c2[nH]cnc21,AC50,[1],"5.62 µM [falling, partial curve, poor fit]"
